# Out of some 320,000 compounds screened, about 2,100 (0.66%) were called active. Inconclusive means that the source gave no clear call. Such entries were picked first, then a sample of the others. The call rests on the fitted dose curve; in most records, active means well fitted inhibition curve with a large enough effect in the signal ratio, with a control signal flat (not every such curve was filed as active); inconclusive means small, poorly fitted or top-dose-only effect, or effect the other way, or a change in a side signal; inactive means flat fitted curve, though single readings scatter; the % refers to the signal ratio. A potency beside an inconclusive call is a rough fit, not a confirmed value.
# Test: qHTS Assay for Lipid Storage Modulators in Drosophila S3 Cells
# Conditions: BODIPY lipid droplet fluorescence, 18-24 h, cells fed with added oleic acid; lipid storage change, negative = inhibition: at 46.1 µM (top of the series) unless noted
# Outline: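 Drosophila S3 cells got compounds at several concentrations plus oleic acid (400 uM solution). Laser-scanning cytometry with 488 nm excitation read lipid droplets at 500-530 nm and cells at 575-640 nm. Percent activity was relative to 20 uM Triacsin C.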
# On the % scale 0 is the no-effect control and ±100 the full control effect; potency means the concentration at half of the fitted maximal effect.
SMILES,Potency,"lipid storage change, negative = inhibition"
Cc1nn(C)c(C(=O)Nc2c(C)nn(Cc3c(F)c(F)c(F)c(F)c3F)c2C)c1Br,"inconclusive: 5.8 µM [activator, single point]",
COc1ccccc1C(=O)Nc1ccc(N2CCN(Cc3ccccc3)CC2)cc1,,inconclusive: 11.6%
CCNC(=O)C(=O)Nc1cc2c3c(c1)CCC(=O)N3CCC2,,inconclusive: 33.4%
Cc1ccc(-n2nc3c(c2NC(=O)c2ccc4c(c2)OCO4)CS(=O)C3)cc1 (stereo not given),,inconclusive: 19.8%
CCCCn1c(N)c(N(CCOC)C(=O)c2ccc(C)o2)c(=O)[nH]c1=O,,inconclusive: 2.88%
C=CCNC(=S)Nc1sc2c(c1C(=O)OCC)CCN(C(=O)OCC)C2,"inconclusive: 1.46 µM [activator, partial curve]",
COc1ccc(Cl)cc1CSc1n[nH]c(C)n1,,inconclusive: -0.995%
COc1cccc(NC(=O)C(C)N2C(=O)c3ccccc3S2(=O)=O)c1 (stereo not given),,inconclusive: 14.2%
CN(Cc1nccs1)C(=O)c1ccc(OC2CCN(Cc3ccccn3)CC2)cc1,"inconclusive: 29.1 µM [activator, single point]",
CN(C)C(=O)c1ccc(NC(=O)COc2cccc3c2OC(C)(C)C3)cc1,,inconclusive
O=C1CS/C(=N/N=C/c2cccs2)N1,,inconclusive: 3.77%
O=C(CSc1nc2ccccc2n1S(=O)(=O)c1ccccc1)N1CCCC1,,inconclusive: 7.8%
CCN(C(=O)c1cc2c(s1)-c1ccccc1OC2)c1cc(OC)ccc1OC,"inconclusive: 0.731 µM [activator, single point]",
COc1ccccc1OCC(=O)N1CCCC(Nc2cccc(F)c2)C1 (stereo not given),,inconclusive: -18.2%
CC1CCC(=NNc2ccc(C(F)(F)F)cc2[N+](=O)[O-])CC1 (stereo not given),"inconclusive: 13 µM [falling, partial curve, poor fit]",
CN(C(=O)COC(=O)c1ccc([N+](=O)[O-])cc1N)c1ccccc1,"inconclusive: 6.51 µM [falling, full curve]",
O=C(OCc1cncs1)c1ccccc1,,inconclusive: -15.6%
Nc1ncnc(Oc2cccc(C(F)(F)F)c2)c1[N+](=O)[O-],,inconclusive: -0.713%
Cc1ccccc1NC(=O)COC(=O)c1c(-c2ccccc2)noc1C,"inconclusive: 6.51 µM [activator, single point]",
CC(=O)N1CCN(CC(=O)Nc2cccc(S(=O)(=O)N3CCCCCC3)c2)CC1,,inconclusive: -1.58%
COc1ccc(-c2nnc(Nc3nc4c(OC)cccc4s3)o2)c(OC)c1,,inconclusive: -19.3%
Cc1cccc2cc(COC(=O)C(C)C)c(=O)[nH]c12,,inconclusive: 16.8%
C/C=C(\C)C(=O)O[C@H](c1cc2ccc(=O)oc2cc1OC)[C@@H](O)C(C)(C)O,,inconclusive: 6.07%
COc1ccc(OC)c(C2CC(=O)N3CN(c4ccccc4)CSC3=C2C#N)c1 (stereo not given),,inconclusive: -15.5%
Cc1nn(Cc2ccccc2)c(C)c1NC(=O)CCCn1nc([N+](=O)[O-])c(Cl)c1C,,inactive
O=C(CCNC(=O)N1CCn2c1nc1ccccc12)NCc1ccc(Cl)cc1,,inconclusive: 20.2%
Cc1ccc(NC(=O)CN(C)C(=O)c2ccc(Cl)c([N+](=O)[O-])c2)cc1,"inconclusive: 32.6 µM [falling, single point]",

SMILES,Potency,"lipid storage change, negative = inhibition"
CN(C1CCS(=O)(=O)C1)S(=O)(=O)c1ccccc1[N+](=O)[O-] (stereo not given),,inconclusive: -7.3%
CCOP(=O)(OCC)c1ccccc1OCP(C)(=O)COc1ccccc1P(=O)(OCC)OCC,,inconclusive: -20.4%
COc1ccccc1/C=N/NC(=O)c1cc2c(ccc3ccccc32)o1,"inconclusive: 16.4 µM [falling, single point]",
O=C(COc1ccc2ccc(=O)oc2c1)OCc1ccccc1,,inconclusive: 17.5%
CC(C)(C)NC(=S)Nc1ccc(Nc2ccccc2)cc1,,inconclusive: -8.85%
COc1ccc(-c2nc(CN3CCC(C(=O)NC4CCN(Cc5ccccc5)CC4)CC3)c(C)o2)cc1OC,,inconclusive: 12%
CCOc1ccc(CN(CC)C(=O)c2ccc3c(c2)[nH]c(=O)c(=O)n3CC)cc1OC,"inconclusive: 0.651 µM [falling, partial curve, poor fit]",
CC(C)(C)C(=O)Nc1ccc(C(=O)COC(=O)C2=COCCO2)cc1,,inconclusive
COc1ccc(OC)c(C(=O)NC(CC(N)=O)c2ccc(N3CCN(c4ccccn4)CC3)c([N+](=O)[O-])c2)c1 (stereo not given),,inconclusive: 21.7%
O=C1c2ccccc2C(Nc2ccccc2F)N1c1cccnc1 (stereo not given),,inconclusive: -9.56%
O=C(NCC1CCCO1)C(c1cccs1)N(C(=O)c1ccc(CN2CCOCC2)o1)c1ccc(Cl)cc1 (stereo not given),,inconclusive: -25.1%
COc1ccc(N2CCN(C3CCCN(Cc4ccccc4OCCO)C3)CC2)cc1 (stereo not given),,inconclusive: -18.7%
CCOC(=O)Cc1cc(=O)n2[nH]c(C)c(-c3ccc(Cl)cc3)c2n1,,inactive
COc1ccc2oc(=O)c(C(=O)N3CCCC3)cc2c1,,inconclusive: -0.688%
Cc1ccc(C(=O)NCc2ccco2)cc1,,inconclusive: 44.1%
Oc1ccccc1-c1nc2c3ccccc3c3ccccc3c2[nH]1,"inconclusive: 18.4 µM [falling, partial curve, poor fit]",
COc1cc(CN2CCC(CO)(Cc3cccc(C(F)(F)F)c3)CC2)ccc1F,,inconclusive: -22.9%
O=C(O)CSc1ncnc2scc(-c3ccc(Br)cc3)c12,,inconclusive: -10.9%
CC(=O)c1nn(-c2cccc(Br)c2)cc1C(=O)c1ccc(Br)cc1,"inconclusive: 6.51 µM [activator, single point]",
COc1ccc(CCC(=O)Nc2cccc(S(=O)(=O)N3CCCC3)c2)cc1OC,,inconclusive: -18.4%
CCc1c(C)nc(Nc2nc(C)c3cc(OC)ccc3n2)[nH]c1=O,"inconclusive: 6.51 µM [falling, full curve, poor fit]",
NS(=O)(=O)c1c(Sc2ccccc2C(=O)O)ccc2ccccc12,"inconclusive: 29.1 µM [activator, single point]",
CC(=O)c1ccc(NC2OC(C)C(O)C(O)C2O)cc1 (stereo not given),,inconclusive: -8.71%
C=CCOC(=O)C1=C(C)Nc2nnnn2C1c1cccs1 (stereo not given),,inconclusive: -6.2%
CCOC(=O)C1(CC2CCCCO2)CCN(S(=O)(=O)c2cccc(F)c2)CC1 (stereo not given),,inconclusive: -29.3%
Cc1onc(-c2c(Cl)cccc2Cl)c1C(=O)N1CCN(c2ncccn2)CC1,,inconclusive: 7.98%
CCCNC(=O)c1ccccc1NC(=O)CN(c1ccccc1)S(=O)(=O)N(C)C,,inactive

# 4 records picked at random from the list so far:
SMILES,Potency,"lipid storage change, negative = inhibition"
CC(C)(C)NC(=S)Nc1ccc(Nc2ccccc2)cc1,,inconclusive: -8.85%
CCOc1ccc(CN(CC)C(=O)c2ccc3c(c2)[nH]c(=O)c(=O)n3CC)cc1OC,"inconclusive: 0.651 µM [falling, partial curve, poor fit]",
O=C(O)CSc1ncnc2scc(-c3ccc(Br)cc3)c12,,inconclusive: -10.9%
COc1ccccc1/C=N/NC(=O)c1cc2c(ccc3ccccc32)o1,"inconclusive: 16.4 µM [falling, single point]",

# (continued)

SMILES,Potency,"lipid storage change, negative = inhibition"
Cc1ccc(/C=C/C(=O)NC2CCCCCCC2)o1,,inconclusive: -16.5%
O=C(NCCOc1ccccc1)c1cc(S(=O)(=O)N2CCOCC2)ccc1F,,inconclusive: 51.2%
O=C(c1ccc(F)cc1Cl)N(c1ccccn1)C1CCCCC1,,inconclusive: 8.94%
O=S(=O)(c1cccc(-c2nc3n(n2)Cc2ccccc2-3)c1)N1CCCC1,,inconclusive: -23.5%
COc1cccc(CNC(=O)c2ccccc2N)c1,,inconclusive: 45.6%
Cc1ccc(S(=O)(=O)CCC(=O)Oc2ccc3c(C)cc(=O)oc3c2)cc1,,inconclusive
CC1=NOC(=O)/C1=C/c1ccc2c(c1)OCO2,,inconclusive: -11.2%
Cc1nn(-c2ccccc2)nc1C(=O)NN,,inconclusive: 5.6%
CCOC(=O)c1[nH]c(=O)[nH]c1CNc1ccccc1C#N,,inconclusive: 44.2%
CC1(c2nnc(Cc3ccccc3)o2)CC(c2ccccc2Br)=NO1 (stereo not given),,inconclusive: 0.166%
O=S(=O)(c1cccc(-c2nc3ccccc3s2)c1)N1CCCC1,,inconclusive: -56.6%
CCOC(=O)c1c(NC(=S)Nc2ccc(Cl)cc2)sc2c1CCN(C)C2,,inconclusive: -34.1%
COc1ccc(-c2cc(CNC(=O)CCl)on2)cc1,,inactive
COc1ccc(S(=O)(=O)N2CCCC2CNC(=O)c2cccc(OC)c2)cc1 (stereo not given),,inconclusive
COC(=O)C(NC(C)=O)(Nc1ccccc1)C(=O)OC,"inconclusive: 29.1 µM [falling, single point]",
CN(CC(=O)Nc1ccc(F)cc1)C(=O)c1cc(-c2ccco2)nc2ccccc12,"inconclusive: 1.3 µM [rising, full curve]",
Cc1ccc(NC(=O)C2CSC3(C)CCC(=O)N23)cc1S(=O)(=O)N1CCOCC1 (stereo not given),,inconclusive: 3.68%
CCOC(=O)C1CCN(S(=O)(=O)c2ccc3c(c2)CCN3C(C)=O)CC1,,inconclusive: -139%
COc1cccc(-n2nnc3c(=O)n(Cc4ccccc4F)cnc32)c1,,inconclusive: -24.2%
OC(CNc1ccccc1)COc1ccc(OCC(O)CNc2ccccc2)cc1 (stereo not given),,inconclusive: 38.4%
CCn1c(COc2ccccc2)nnc1SCc1ccc(C#N)cc1,,inconclusive: -5.94%
COc1ccc(OC)c(N(CC(=O)N2CCC(C)CC2)S(=O)(=O)c2ccc(OC)c(OC)c2)c1,,inconclusive: -21.4%
O=S(=O)(c1ccc(F)cc1)N1CCn2c(nc3ccccc32)C1,"inconclusive: 0.411 µM [activator, single point]",
CCOC(=O)C1(CC2CC2)CCN(Cc2ccc(OC)cc2F)CC1,,inconclusive: 40.9%
CC(C)n1c(N2CCN(C(=O)N3CCCCC3)CC2)nc2ccccc21,,inconclusive: -18.5%
Nn1c(SCC(=O)NC2CCCCC2)nnc1C1CC1,,inconclusive: 59.8%

# Reference: PubChem BioAssay AID2685 (National Center for Advancing Translational Sciences (NCATS), 2010)
